Here are results for 30 sequences from PubChem BioAssay AID1508600 (Functional Genomics Laboratory (NCATS/FGL), 2020).

Among all 53,000 sequences or so, about 3,700 (7%) were called active.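 The calls were made as follows: active = gene knockdowns whose robust z-score for IL-1 alpha signal is at least 2 or at most -2, so actives lie on both sides; inactive = the rest.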 The list shows a part of the results.

The experiment in a line: Components of the Cytosolic LPS Sensing Pathway: Gene Identification via Genome-wide siRNA Screen.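 Also: robust z of the log signal after scaling to non-targeting control siRNA wells of the plate.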 The settings on record: RAW264.7 macrophages, IL-1a HTRF, actives lie on both sides, screened at 100 nM (by protocol), cells primed 5 h with Pam3CSK4 first. An outline of the steps:
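RAW264.7; siRNA 100 nM final, RNAiMAX, 48h 37 degrees C; Pam3CSK4 5 h; LipidA + TransIT-TKO 24 h; IL-1a HTRF; CellTiter-Glo viability; robust z vs negative-control median.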
In the case of GGCCCUUCAUGAAGAGCAATT against Carf, the z-score was active: 2.07.

For GGAACACUUUAAGACCAAATT against Fmnl1, the z-score is inactive: 0.482.

Consider GGACAAGAACAAUUGCUAUTT against Zscan4c, for which the z-score was inactive: 0.73.

As to GCAGGUUUAACAACUUACUTT against Dmgdh, the z-score is active: 3.07.

As to CGGGAAGAAGUUCAUAAAUTT against Topbp1, the z-score was inactive: 0.36.

As to CGAAAUCCUAGUUUCGUCCTT against Spns1, the z-score was active: 3.29.

Take GGGAGAUGAAGAGGAGAAGTT against Smad9: the z-score was inactive: 0.448.

For GGAGGUAACAACAACAGAATT against BC028528, the z-score was inactive: 0.7.

On to CGAUUACAUCCUUUUUGACTT against Gpn3, for which the z-score was inactive: -0.228.

In the case of GGGACAGUAGAAGAUGUAGTT against Got2, the z-score was inactive: -0.706.

On to GGCAGUCAAUGAAGUUUUUTT against Fbxo38, for which the z-score was inactive: 1.11.

As to GGCACCUUGGAGUUACAUATT against Pcdha10, the z-score was inactive: -0.24.

GGUGACUAGUUCCAGAAGATT against Ptprm: the z-score was inactive: -0.234.

On to CGACUUCACCUUAUUCCUGTT against Nle1, for which the z-score was inactive: 0.811.

As for CGGGUAACAGAAAUACUGUTT against Trib1, the z-score is inactive: 1.15.

Take GCAUCUGGGACAUUUAGAGTT against Cd200r3: the z-score was inactive: -1.08.

Turning to CGAGUCAAUCAACUUGUCUTT against Olfr54, the z-score was inactive: -0.882.

Regarding GGAAUGUCGAAUUGAUUGUTT against Klrb1b, the z-score was inactive: 0.524.

As to GGUCACGAUUAUCUUCAAATT against Rgmb, the z-score is inactive: -0.708.

On to GUCAAAGCACCAUUUGAGUTT against Vmn1r8, for which the z-score was inactive: -0.842.

For UACUUCUGACUGUCAUUGGTT against Olfr310, the z-score is inactive: 0.92.

Turning to GCUUUUCUAGAAUACAGCCTT against Tdpoz4, the z-score is inactive: 0.525.

On to GGCUCAAGAGAAAAGAAGGTT against Cstdc1, for which the z-score was inactive: -0.594.

As to GGCAACAUCCAAAAACUCUTT against Yme1l1, the z-score was inactive: -0.338.

For the sequence GGCAUCCAUGUGCUCUUUCTT against Tex13a, the z-score is active: -2.49.

With CCGGUGACUUGACUUACUATT against Man1a2, the z-score was inactive: 1.76.

Consider CCAGCAAAUGAGAGGUCUGTT against Olfr1024, for which the z-score is inactive: 0.676.

GGCCAUUCUGGAAACUCCATT against Foxp4: the z-score was inactive: -0.0644.

GCAAGCCAACUGACCAUCATT against Nudt2: the z-score was inactive: 0.486.

For the sequence GCGGCUCUUACGAGGUUUATT against Upk3a, the z-score is inactive: 0.024.
